Taken from: PubChem BioAssay AID1508597 (Cure First, 2020)
This is an unselected part of the about 2,100 reagents, in one setting of the screen. 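Calls flag viability under 80% in either arm, not effects specific to rucaparib; the reference for percent is not stated.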 A number with no mark means an inactive call. A reagent listed more than once was tested more than once; the source does not tell the runs apart. Not given: the 100% reference.

Test: 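Genes whose silencing sensitises or protects ovarian cancer cells against rucaparib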 (primary screen)
Cell system: human ovarian carcinoma lines grown from tumours: OCI-P5x (papillary serous) and OCI-C5x (clear cell)
Reagents: siRNA pool against human genes, 1.25 pmol siRNA per well
Timing: 72 h or 96 h, depending on the cell culture
Conditions: rucaparib 20 µM (about IC30) or vehicle, present until read-out
Rucaparib or vehicle: Rucaparib
Cell line: OCI-P5x (serous)
Read-out: 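ATP luminescence measured at 72 or 96 h according to the culture, then normalised and expressed as percent viability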
Reading the numbers: viability, normalised: higher = more viable cells remaining
Rule for the call: 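Active when normalised viability falls below 80 percent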
Meaning of the calls: active = viability under 80%; inactive = viability 80% or more

target	technical replicate	viability, normalised (%)
ZMYND8	1	63.6 (active)
ZMYND8	2	48.4 (active)
ZMYND8	3	47.2 (active)
PANK3	1	67.5 (active)
PANK3	2	58.3 (active)
PANK3	3	59.1 (active)
NCOA2	1	58.1 (active)
NCOA2	2	52.3 (active)
NCOA2	3	54.8 (active)
TWF1	1	117
TWF1	2	110
TWF1	3	102
SULF2	1	76.1 (active)
SULF2	2	73.5 (active)
SULF2	3	97
GRK2	1	82
GRK2	2	82.1
GRK2	3	46 (active)
PHF10	1	54.6 (active)
PHF10	2	51.4 (active)
PHF10	3	60.6 (active)
ADAM9	1	58.2 (active)
ADAM9	2	57.6 (active)
ADAM9	3	43.1 (active)
COPRS	1	78.5 (active)
COPRS	2	81.8
COPRS	3	59.4 (active)
BORA	1	50.7 (active)
BORA	2	57.6 (active)
BORA	3	68.6 (active)
PDE9A	1	69.6 (active)
PDE9A	2	38 (active)
PDE9A	3	60.3 (active)
KMT5B	1	57.8 (active)
KMT5B	2	65.7 (active)
KMT5B	3	68.2 (active)
TNNI3K	1	83.2
TNNI3K	2	68.4 (active)
TNNI3K	3	83.4
CHMP1B	1	76.3 (active)
CHMP1B	2	80.6
CHMP1B	3	50.1 (active)
ALG8	1	64.6 (active)
ALG8	2	68.1 (active)
ALG8	3	59.1 (active)
TAF1	1	87.6
TAF1	1	56.3 (active)
TAF1	2	84.9
TAF1	2	74.2 (active)
TAF1	3	81.9
TAF1	3	66 (active)
CHD5	1	50.2 (active)
CHD5	2	88.5
CHD5	3	45.1 (active)
DDX4	1	64.5 (active)
DDX4	2	64.8 (active)
DDX4	3	62.7 (active)
